The list shows a part of the results. Residues, ends and D or L forms follow the SMILES beside them. *: point of attachment. Cbz = O=C(OCc1ccccc1)*
Legend:
Test in all cases: log2 fold change, soluble protein after heating vs DMSO (PISA); higher = thermal stabilisation; K562 cells, 10 uM, 30 min; active = over 0.2 and 3.5 SD of the protein, either way, in both replicates (recomputed)
[1] = compound: C#Cc1cccc(Nc2ncnc3cc(OCCOC)c(OCCOC)cc23)c1 [erlotinib]
Outline: (§1)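 Quantification of soluble protein used TMTpro 16plex LC-MS/MS, with channel sums equalised. Samples were the supernatant after 21,000xg for 90 min of pooled aliquots from K562 cells (2×10^6 cells/mL) treated with 10 μM compound for 30 min, heated for 3 min over 48°C-58°C, and extracted in PBS with 0.5% NP-40 at 4°C. Values, from duplicates, describe thermal stability against control samples on a log2 fold-change scale.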

Chains of the proteins cited; added tags and fusions are not shown. Lines headed by an entry give the natural chain unless they say otherwise; changes in a name come on top.
UniProt Q9Y4K3: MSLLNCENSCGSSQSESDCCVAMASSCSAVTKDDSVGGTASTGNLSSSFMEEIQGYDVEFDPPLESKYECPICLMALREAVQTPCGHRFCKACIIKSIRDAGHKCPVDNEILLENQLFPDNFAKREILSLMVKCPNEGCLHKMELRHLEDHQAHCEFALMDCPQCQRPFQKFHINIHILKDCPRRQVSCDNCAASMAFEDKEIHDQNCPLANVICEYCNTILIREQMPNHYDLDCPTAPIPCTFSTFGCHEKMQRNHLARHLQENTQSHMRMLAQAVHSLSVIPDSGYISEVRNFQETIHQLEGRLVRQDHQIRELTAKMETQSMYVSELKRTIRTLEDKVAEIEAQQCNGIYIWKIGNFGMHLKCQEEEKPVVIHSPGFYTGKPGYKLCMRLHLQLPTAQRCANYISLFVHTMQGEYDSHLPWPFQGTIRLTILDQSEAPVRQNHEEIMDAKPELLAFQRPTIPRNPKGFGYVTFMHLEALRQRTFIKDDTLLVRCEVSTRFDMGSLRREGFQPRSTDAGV
UniProt Q9ULW0, whole entry, looked up: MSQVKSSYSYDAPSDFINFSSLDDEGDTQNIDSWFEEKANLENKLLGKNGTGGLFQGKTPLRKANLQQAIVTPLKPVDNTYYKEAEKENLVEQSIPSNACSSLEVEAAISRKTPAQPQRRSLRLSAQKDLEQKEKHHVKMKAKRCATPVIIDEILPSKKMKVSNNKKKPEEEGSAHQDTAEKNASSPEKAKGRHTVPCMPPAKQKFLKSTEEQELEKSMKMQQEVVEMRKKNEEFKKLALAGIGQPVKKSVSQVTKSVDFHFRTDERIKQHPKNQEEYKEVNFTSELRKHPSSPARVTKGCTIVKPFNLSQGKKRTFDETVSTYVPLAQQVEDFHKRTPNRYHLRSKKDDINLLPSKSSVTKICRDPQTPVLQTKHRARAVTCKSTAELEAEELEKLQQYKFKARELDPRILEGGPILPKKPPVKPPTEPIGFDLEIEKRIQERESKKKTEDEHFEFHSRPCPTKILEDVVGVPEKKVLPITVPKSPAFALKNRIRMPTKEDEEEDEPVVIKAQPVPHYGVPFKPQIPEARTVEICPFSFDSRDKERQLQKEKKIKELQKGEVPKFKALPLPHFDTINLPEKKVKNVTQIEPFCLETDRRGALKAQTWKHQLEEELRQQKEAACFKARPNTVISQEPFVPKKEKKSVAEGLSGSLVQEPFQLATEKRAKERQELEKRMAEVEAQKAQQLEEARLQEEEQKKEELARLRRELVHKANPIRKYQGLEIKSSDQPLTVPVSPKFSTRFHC
UniProt Q9BUZ4: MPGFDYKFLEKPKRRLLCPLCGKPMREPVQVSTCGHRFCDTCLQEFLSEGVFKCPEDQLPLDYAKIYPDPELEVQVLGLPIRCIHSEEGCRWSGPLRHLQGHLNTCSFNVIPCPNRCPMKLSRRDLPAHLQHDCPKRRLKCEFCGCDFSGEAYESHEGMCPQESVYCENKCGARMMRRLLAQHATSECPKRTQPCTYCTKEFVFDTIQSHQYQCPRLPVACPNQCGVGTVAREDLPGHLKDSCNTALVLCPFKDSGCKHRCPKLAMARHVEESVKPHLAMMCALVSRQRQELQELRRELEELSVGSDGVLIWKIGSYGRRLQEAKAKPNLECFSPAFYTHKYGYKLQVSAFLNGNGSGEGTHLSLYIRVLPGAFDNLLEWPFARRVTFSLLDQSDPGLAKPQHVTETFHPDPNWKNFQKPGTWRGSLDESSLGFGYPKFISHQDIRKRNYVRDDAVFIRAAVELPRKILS
UniProt O43715: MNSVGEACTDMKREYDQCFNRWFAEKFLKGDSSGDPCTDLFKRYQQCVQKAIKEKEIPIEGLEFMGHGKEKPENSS
UniProt O94842: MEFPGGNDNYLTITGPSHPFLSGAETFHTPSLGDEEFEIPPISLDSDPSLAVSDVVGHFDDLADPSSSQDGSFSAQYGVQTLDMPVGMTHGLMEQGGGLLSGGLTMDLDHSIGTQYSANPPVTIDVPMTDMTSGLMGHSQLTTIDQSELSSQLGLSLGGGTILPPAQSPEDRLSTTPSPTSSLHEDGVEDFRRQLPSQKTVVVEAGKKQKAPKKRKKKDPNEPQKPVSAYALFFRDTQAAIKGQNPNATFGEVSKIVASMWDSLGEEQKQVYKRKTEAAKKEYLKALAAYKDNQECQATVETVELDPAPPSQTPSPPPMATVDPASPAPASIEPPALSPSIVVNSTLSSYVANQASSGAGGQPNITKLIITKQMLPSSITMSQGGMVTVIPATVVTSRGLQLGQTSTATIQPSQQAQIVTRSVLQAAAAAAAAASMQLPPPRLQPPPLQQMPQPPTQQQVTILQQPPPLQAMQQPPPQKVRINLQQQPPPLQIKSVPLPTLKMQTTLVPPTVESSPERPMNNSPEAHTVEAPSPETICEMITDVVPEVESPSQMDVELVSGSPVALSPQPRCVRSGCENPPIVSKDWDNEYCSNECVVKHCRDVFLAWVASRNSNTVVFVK
UniProt Q96Q11: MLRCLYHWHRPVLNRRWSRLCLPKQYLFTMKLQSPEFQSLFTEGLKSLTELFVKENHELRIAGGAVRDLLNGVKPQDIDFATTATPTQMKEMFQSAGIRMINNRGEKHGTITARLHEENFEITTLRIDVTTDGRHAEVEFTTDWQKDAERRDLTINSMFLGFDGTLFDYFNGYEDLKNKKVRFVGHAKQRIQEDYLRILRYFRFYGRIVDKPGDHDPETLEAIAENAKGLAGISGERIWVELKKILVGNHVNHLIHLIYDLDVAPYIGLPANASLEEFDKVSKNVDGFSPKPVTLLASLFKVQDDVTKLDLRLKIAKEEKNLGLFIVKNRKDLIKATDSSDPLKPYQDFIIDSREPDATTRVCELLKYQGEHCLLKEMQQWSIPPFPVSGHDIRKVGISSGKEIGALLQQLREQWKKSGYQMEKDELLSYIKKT
UniProt Q9C0C2: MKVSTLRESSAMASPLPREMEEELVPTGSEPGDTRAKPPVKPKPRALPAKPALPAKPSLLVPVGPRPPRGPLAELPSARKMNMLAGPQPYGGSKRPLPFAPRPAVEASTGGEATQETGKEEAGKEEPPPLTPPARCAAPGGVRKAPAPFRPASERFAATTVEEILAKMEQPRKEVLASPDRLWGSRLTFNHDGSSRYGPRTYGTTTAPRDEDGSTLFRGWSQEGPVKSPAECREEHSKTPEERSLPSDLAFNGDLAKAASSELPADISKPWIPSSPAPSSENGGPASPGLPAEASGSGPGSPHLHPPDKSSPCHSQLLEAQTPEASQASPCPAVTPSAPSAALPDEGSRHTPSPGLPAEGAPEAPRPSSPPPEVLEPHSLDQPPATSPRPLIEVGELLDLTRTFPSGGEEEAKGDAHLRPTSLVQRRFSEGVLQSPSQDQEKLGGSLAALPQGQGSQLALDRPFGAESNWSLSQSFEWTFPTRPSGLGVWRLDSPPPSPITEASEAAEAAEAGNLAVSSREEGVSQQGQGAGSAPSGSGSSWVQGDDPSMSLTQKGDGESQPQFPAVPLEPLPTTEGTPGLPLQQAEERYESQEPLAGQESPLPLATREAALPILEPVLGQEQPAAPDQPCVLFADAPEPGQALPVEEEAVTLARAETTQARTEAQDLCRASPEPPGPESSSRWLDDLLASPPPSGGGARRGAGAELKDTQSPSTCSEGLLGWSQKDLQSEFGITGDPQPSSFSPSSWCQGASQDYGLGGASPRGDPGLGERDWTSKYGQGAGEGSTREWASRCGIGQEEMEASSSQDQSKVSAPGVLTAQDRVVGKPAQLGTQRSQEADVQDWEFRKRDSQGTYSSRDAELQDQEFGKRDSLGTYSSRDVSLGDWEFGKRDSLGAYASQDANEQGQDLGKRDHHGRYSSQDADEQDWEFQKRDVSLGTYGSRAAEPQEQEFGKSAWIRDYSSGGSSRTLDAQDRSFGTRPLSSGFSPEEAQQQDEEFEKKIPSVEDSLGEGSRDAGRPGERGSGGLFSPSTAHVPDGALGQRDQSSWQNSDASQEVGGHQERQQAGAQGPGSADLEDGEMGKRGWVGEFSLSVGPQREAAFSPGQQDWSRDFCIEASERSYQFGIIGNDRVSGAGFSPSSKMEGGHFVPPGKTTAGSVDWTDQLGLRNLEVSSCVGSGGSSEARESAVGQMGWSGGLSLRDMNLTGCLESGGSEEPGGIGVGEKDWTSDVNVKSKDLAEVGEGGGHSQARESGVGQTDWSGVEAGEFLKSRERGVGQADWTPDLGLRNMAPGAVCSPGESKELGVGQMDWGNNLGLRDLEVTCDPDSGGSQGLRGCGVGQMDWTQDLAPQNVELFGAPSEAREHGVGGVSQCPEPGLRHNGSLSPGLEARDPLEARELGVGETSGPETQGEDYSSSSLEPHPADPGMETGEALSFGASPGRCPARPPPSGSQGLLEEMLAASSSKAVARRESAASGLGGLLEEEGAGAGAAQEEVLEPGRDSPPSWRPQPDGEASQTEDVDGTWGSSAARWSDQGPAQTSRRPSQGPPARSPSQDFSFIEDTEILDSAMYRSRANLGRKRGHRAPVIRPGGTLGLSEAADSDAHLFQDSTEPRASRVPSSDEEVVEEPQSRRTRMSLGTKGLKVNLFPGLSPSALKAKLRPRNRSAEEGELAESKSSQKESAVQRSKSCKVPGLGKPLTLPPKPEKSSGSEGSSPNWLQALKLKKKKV
UniProt O95985: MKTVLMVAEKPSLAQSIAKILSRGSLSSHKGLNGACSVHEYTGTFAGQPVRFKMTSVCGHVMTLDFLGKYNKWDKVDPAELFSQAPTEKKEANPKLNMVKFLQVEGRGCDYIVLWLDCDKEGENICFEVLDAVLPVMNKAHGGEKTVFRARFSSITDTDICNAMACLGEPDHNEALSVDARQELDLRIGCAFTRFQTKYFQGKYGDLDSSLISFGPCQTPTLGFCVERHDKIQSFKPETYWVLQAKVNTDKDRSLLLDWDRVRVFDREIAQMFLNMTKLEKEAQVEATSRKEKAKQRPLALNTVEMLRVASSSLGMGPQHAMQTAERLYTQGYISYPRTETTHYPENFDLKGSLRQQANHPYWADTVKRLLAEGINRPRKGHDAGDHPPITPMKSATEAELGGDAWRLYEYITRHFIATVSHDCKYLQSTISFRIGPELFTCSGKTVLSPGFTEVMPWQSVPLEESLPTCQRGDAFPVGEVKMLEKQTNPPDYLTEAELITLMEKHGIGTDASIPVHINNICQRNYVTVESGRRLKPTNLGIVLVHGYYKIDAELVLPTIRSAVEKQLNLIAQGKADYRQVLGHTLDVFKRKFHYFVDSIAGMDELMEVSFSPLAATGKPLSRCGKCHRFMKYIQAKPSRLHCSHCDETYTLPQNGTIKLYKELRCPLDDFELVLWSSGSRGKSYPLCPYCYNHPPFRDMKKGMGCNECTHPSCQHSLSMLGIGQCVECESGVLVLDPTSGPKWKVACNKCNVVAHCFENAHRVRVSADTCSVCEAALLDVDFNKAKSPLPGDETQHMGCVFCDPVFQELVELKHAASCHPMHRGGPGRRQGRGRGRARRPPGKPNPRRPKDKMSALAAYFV
UniProt Q9BSV6: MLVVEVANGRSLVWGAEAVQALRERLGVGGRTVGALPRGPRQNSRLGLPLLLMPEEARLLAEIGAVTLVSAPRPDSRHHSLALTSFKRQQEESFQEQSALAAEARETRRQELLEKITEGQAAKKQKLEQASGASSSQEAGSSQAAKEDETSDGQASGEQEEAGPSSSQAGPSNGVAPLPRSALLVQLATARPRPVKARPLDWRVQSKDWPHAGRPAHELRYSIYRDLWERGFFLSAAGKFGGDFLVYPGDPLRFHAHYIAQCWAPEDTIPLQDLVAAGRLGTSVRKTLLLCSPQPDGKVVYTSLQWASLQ
UniProt Q15654: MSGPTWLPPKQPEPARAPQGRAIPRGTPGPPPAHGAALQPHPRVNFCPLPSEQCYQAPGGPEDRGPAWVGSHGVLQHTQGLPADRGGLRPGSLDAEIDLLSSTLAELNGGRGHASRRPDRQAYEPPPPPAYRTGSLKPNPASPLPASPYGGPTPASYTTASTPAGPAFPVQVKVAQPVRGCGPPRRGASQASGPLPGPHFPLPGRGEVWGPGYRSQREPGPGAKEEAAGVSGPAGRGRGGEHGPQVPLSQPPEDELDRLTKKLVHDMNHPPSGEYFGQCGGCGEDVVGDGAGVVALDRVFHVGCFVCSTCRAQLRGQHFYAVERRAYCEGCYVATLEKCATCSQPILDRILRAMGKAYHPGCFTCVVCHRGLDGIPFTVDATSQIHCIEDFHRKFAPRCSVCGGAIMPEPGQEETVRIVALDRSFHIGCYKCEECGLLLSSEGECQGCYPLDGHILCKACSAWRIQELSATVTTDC

[2] = compound: C/C(=N\NC(=O)C1=CC(=CC=C1)S(=O)(=O)N2CCOCC2)/C3=C(C=CC(=C3)Cl)O
Outline: as §1

[3] = compound: C1=CC(=C(C=C1Cl)C2=NC3=NC=CN=C3C(=N2)NC4=CC=NC=C4)F
Outline: as §1

[4] = compound: C1=CC(=CC=C1C2=NC3=C(N2)C=C(C=C3)C(=O)N)OC4=CC=C(C=C4)Cl
Outline: as §1

[5] = compound: C1=CC2=C(C=CC(=C2)/C=C\3/C(=O)NC(=NCC4=CC=CS4)S3)N=C1
Outline: as §1

[6] = compound: C1=CC2=NC=CN=C2C=C1/C=C/3\C(=O)NC(=O)S3
Outline: as §1

[7] = compound: C1=CC=C(C=C1)C2=NC(=C(N2)C3=CC=NC=C3)C4=CC(=C(C=C4)Cl)O
Outline: as §1

[8] = compound: C1=CC=C2C(=C1)C3=NNC4=CC=CC(=C43)C2=O
Outline: as §1

[9] = compound: C1CCN(C1)C(=O)NC2=CC=CC(=C2)NC3=NC=C(C(=N3)NCCC4=CN=CN4)Br
Outline: as §1

[10] = compound: C1CN(CCC1(CC2=CC=C(C=C2)Cl)N)C3=NC=NC4=C3C=CN4
Outline: as §1

[11] = compound: C1COCCN1CCN2C3=CC=CC=C3N=C2NC(=O)C4=CC(=CC=C4)[N+](=O)[O-] [IRAK-1-4 Inhibitor I]
Outline: as §1

[12] = compound: C=CC(=O)N1CCC[C@@H](n2nc(-c3ccc(Oc4ccccc4)cc3)c3c(N)ncnc32)C1 [ibrutinib]
Outline: as §1

[13] = compound: CC(=O)c1cnc2ccc(-c3cc(Cl)c(O)c(Cl)c3)nc2c1N[C@H]1CC[C@H](CN(C)C)CC1
Outline: as §1

[14] = compound: CC(C)(C)Cn1c(N)nc2ccc(-c3[nH]c(C(C)(C)C)nc3-c3ccc(F)cc3)nc21 [ralimetinib]
Outline: as §1

[15] = compound: CC(C)(O)CC(=O)NCCn1ccc2ncnc(Nc3ccc(Oc4cccc(C(F)(F)F)c4)c(Cl)c3)c21
Outline: as §1

[16] = compound: CC(C)C1=C2N=C(C=C(N2N=C1)NCC3=CC=CC=C3)NCCCCCCN
Outline: as §1

[17] = compound: CC(C)C[C@@H](C=O)NC(=O)[C@H](CC(C)C)NC(=O)[C@H](CC(C)C)NC(=O)OCc1ccccc1
Outline: as §1

[18] = compound: CC(C)N(C[C@H]1O[C@@H](n2cnc3c(N)ncnc32)[C@H](O)[C@@H]1O)[C@H]1C[C@@H](CCc2nc3cc(C(C)(C)C)ccc3[nH]2)C1 [pinometostat]
Outline: as §1

[19] = compound: CC1=C(C(CC(=O)N1)C2=CC=C(C=C2)C(F)(F)F)C(=O)NC3=C(C=C4C(=C3)C=NN4)F
Outline: as §1

[20] = compound: CC1=C(C2=C(C=C1)C(=O)C3=CC=CC=C3N2CCCN)C
Outline: as §1

Measured: log2 fold change

TRAF6 (UniProt Q9Y4K3)
inactive: [1] -0.067 | [2] 0.077 | [3] 0.082 | [4] 0.009 | [5] -0.06 | [6] -0.031 | [7] -0.019 | [8] 0.06 | [9] 0.039 | [10] 0.082 | [11] 0.016 | [12] 0.035 | [13] -0.103 | [14] -0.039 | [15] -0.033 | [16] 0.093 | [17] 0.055 | [18] 0.084 | [19] -0.025 | [20] -0.061

TPP2 (UniProt Q5VZU9)
inactive: [1] -0.143 | [2] 0.014 | [3] -0.096 | [4] -0.248 | [5] 0.209 | [6] -0.256 | [7] 0.093 | [8] -0.079 | [9] -0.353 | [10] 0.076 | [11] 0.009 | [12] 0.023 | [13] -0.111 | [14] 0.155 | [15] 0.038 | [16] 0.16 | [17] 0.077 | [18] 0.158 | [19] 0.118 | [20] 0.338

TRIO (UniProt O75962)
inactive: [1] 0.329 | [2] 0.007 | [3] 0.098 | [4] -0.013 | [5] 0.04 | [6] 0.073 | [7] -0.247 | [8] -0.054 | [9] 0.03 | [10] 0.071 | [11] -0.158 | [12] -0.035 | [13] 0.092 | [14] -0.205 | [15] -0.149 | [16] -0.16 | [17] 0.158 | [18] -0.037 | [19] -0.041 | [20] 0.027

TPX2 (UniProt Q9ULW0)
inactive: [1] -0.023 | [2] -0.022 | [3] -0.11 | [4] 0.029 | [5] -0.012 | [6] 0.079 | [7] -0.012 | [8] -0.088 | [9] -0.104 | [10] 0.036 | [11] -0.01 | [12] 0.016 | [13] -0.032 | [14] 0.029 | [15] 0.031 | [16] 0.039 | [17] 0.103 | [18] 0.036 | [19] 0 | [20] 0.162

TRAF4 (UniProt Q9BUZ4)
inactive: [1] 0.048 | [2] 0.096 | [3] -0.08 | [4] -0.016 | [5] -0.03 | [6] 0.021 | [7] -0.032 | [8] -0.052 | [9] 0.022 | [10] -0.017 | [11] -0.054 | [12] 0.05 | [13] -0.028 | [14] 0.028 | [15] 0.143 | [16] 0.008 | [17] 0.075 | [18] -0.088 | [19] -0.049 | [20] -0.085

TPM4, A0A2R8Y5V9
inactive: [1] 0.014 | [2] -0.05 | [3] 0.053 | [4] 0 | [5] -0.034 | [6] 0.006 | [7] -0.051 | [8] 0.04 | [9] -0.008 | [10] 0.034 | [11] 0.099 | [12] 0.015 | [13] -0.037 | [14] -0.007 | [15] 0.052 | [16] 0.057 | [17] 0.031 | [18] 0.013 | [19] 0.028 | [20] 0.03

TRIAP1 (UniProt O43715)
inactive: [1] -0.028 | [2] -0.099 | [3] 0.123 | [4] 0.124 | [5] 0.08 | [6] 0.045 | [7] 0.012 | [8] 0.03 | [9] 0.066 | [10] 0.049 | [11] 0.035 | [12] -0.007 | [13] -0.071 | [14] -0.017 | [15] -0.039 | [16] -0.015 | [17] -0.003 | [18] -0.052 | [19] 0.055 | [20] 0.131

TOX4 (UniProt O94842)
inactive: [1] -0.033 | [2] -0.168 | [3] -0.243 | [4] 0.067 | [5] -0.091 | [6] 0.087 | [7] -0.081 | [8] -0.064 | [9] 0.029 | [10] -0.107 | [11] 0.04 | [12] 0.059 | [13] 0.146 | [14] 0.197 | [15] 0.087 | [16] 0.031 | [17] 0.044 | [18] 0.274 | [19] -0.01 | [20] 0.157

TRNT1 (UniProt Q96Q11)
inactive: [1] 0.107 | [2] 0.015 | [3] 0.063 | [4] -0.02 | [5] 0.052 | [6] 0.005 | [7] 0.05 | [8] 0.043 | [9] 0.003 | [10] -0.003 | [11] 0.035 | [12] -0.014 | [13] -0.042 | [14] 0.014 | [15] -0.162 | [16] -0.063 | [17] -0.003 | [18] 0.02 | [19] -0.014 | [20] 0.114

TNKS1BP1 (UniProt Q9C0C2)
inactive: [1] 0.005 | [2] -0.03 | [3] -0.03 | [4] 0.05 | [5] -0.001 | [6] 0.021 | [7] -0.039 | [8] -0.053 | [9] 0.002 | [10] 0.066 | [11] 0.023 | [12] 0.044 | [13] -0.018 | [14] 0.007 | [15] 0.048 | [16] 0.108 | [17] 0.027 | [18] -0.022 | [19] 0.034 | [20] 0.053

TPRKB (UniProt Q9Y3C4)
inactive: [1] -0.002 | [2] 0.053 | [3] -0.006 | [4] 0.036 | [5] 0.037 | [6] 0.024 | [7] 0.005 | [8] -0.02 | [9] -0.042 | [10] -0.012 | [11] 0.05 | [12] 0.019 | [13] -0.1 | [14] -0.021 | [15] 0.024 | [16] 0.094 | [17] -0.031 | [18] -0.022 | [19] -0.025 | [20] 0.039

TOP3B (UniProt O95985)
inactive: [1] -0.012 | [2] -0.048 | [3] -0.198 | [4] 0.018 | [5] 0.008 | [6] -0.001 | [7] -0.01 | [8] -0.002 | [9] -0.004 | [10] -0.125 | [11] -0.027 | [12] -0.008 | [13] 0.009 | [14] 0.15 | [15] 0.009 | [16] -0.119 | [17] 0.174 | [18] 0.202 | [19] 0.014 | [20] 0.028

TSEN34 (UniProt Q9BSV6)
inactive: [1] 0.038 | [2] 0.035 | [3] 0.17 | [4] 0.034 | [5] 0.106 | [6] -0.032 | [7] 0.007 | [8] -0.028 | [9] -0.137 | [10] 0 | [11] 0.047 | [12] 0.01 | [13] -0.063 | [14] 0.022 | [15] -0.041 | [16] 0.035 | [17] 0.013 | [18] -0.029 | [19] 0.049 | [20] 0.072

TRIP6 (UniProt Q15654)
inactive: [1] 0.002 | [2] 0.003 | [3] 0.044 | [4] -0.01 | [5] -0.025 | [6] 0.006 | [7] 0.028 | [8] -0.025 | [9] -0.034 | [10] 0.05 | [11] 0.035 | [12] 0.005 | [13] 0.018 | [14] 0.019 | [15] -0.032 | [16] -0.001 | [17] -0.011 | [18] -0.039 | [19] 0.048 | [20] 0.003

TRIP11 (UniProt Q15643)
inactive: [1] 0.127 | [2] 0.029 | [3] -0.171 | [4] 0.001 | [5] -0.118 | [6] -0.071 | [7] -0.116 | [8] -0.093 | [9] 0.174 | [10] -0.139 | [11] -0.054 | [12] 0.191 | [13] -0.069 | [14] 0.033 | [15] 0.018 | [16] -0.187 | [17] 0.117 | [18] 0.032 | [19] -0.06 | [20] 0.038

TRMT61B (UniProt Q9BVS5)
inactive: [1] -0.015 | [2] 0.018 | [3] -0.128 | [4] 0.036 | [5] -0.065 | [6] -0.007 | [7] -0.022 | [8] -0.026 | [9] -0.007 | [10] -0.035 | [11] -0.071 | [12] 0.01 | [13] 0.091 | [14] 0.078 | [15] 0.025 | [16] 0.025 | [17] 0.057 | [18] 0.029 | [19] 0.004 | [20] 0.134

Source: the supplement of paper PMC10849652
